From patent US5256788A, “Moranoline derivatives and their production and the use of moranoline and its derivatives as a stabilizing agent for enzymes” (Nippon Shinyaku Co. Ltd., priority 1989, dated 1993)
The name of at least one read-out is uncertain.

Biological target: T1, immobilized CGTase (Geobacillus stearothermophilus, UniProt P31797)
T1 construct: purchased Hayashibara Biochemical Research Institute
T1 sequence (P31797 32-711): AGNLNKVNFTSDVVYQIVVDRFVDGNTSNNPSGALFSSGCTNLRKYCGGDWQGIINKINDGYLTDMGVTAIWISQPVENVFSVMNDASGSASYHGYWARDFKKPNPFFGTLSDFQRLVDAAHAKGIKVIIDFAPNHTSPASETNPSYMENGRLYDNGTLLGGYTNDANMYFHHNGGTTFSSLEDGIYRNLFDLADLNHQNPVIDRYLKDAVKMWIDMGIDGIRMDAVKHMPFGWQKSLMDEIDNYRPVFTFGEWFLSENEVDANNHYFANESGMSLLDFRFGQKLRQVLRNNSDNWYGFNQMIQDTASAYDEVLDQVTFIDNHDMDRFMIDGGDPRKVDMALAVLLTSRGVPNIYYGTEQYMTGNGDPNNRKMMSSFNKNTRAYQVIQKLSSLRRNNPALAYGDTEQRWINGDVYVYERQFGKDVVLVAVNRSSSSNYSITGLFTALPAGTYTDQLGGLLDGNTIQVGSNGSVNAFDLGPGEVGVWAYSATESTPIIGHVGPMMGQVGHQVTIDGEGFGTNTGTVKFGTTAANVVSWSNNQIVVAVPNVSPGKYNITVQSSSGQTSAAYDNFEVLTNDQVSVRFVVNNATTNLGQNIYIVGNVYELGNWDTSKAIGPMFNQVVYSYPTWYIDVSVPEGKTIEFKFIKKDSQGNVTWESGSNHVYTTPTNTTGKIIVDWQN
Test: Stabilization of immobilized CGTase by moranoline and moranoline glucose oligomer
Type: biochemical, Bacillus stearothermophilus
Details: moranoline 2.5 w/v%, moranoline glucose oligomer 5.0 w/v%

SMILES: OC[C@H]1NC[C@H](O)[C@@H](O)[C@@H]1O [moranoline]
- residual enzyme activity retention rate (14 Days at 55° C.): 81.6%
- residual enzyme activity retention rate (28 Days at 55° C.): 77.8%
- residual enzyme activity retention rate (42 Days at 55° C.): 70.8%
